Source: PubChem BioAssay AID256 (DTP/NCI, 2004)
The list is a part of this screen's results and no random one: it gathers tests that were run many times, whatever their T/C, doses with no T/C, and many T/C values between a quarter and a half above the control. Further doses and runs are listed elsewhere. T/C: endpoint of the treated group in % of that of the vehicle group. Some entries give survivors of the animals treated and no T/C: the source holds a T/C of zero for them, seemingly a mark for toxic or unscored doses. Some doses without a T/C left all or most animals alive at the check, yet need not have been tolerated: survival well below the control is almost never listed, so the zero probably covers shortened survival too. Counts of survivors are from the toxicity check (mostly the fifth day) where no day follows; animals may have died later. Schedules are NCI's codes, read here as Q, the interval in days (D) or hours (H), X, the number of doses. Counts like (3×) say how often a value occurs here. Some entries hold several experiments; their values stand side by side, smallest first. Where survival is the endpoint, the PubChem record calls one and a half times the control and up active, and a quarter to a half above the control has no call in these data; cut-offs in other NCI protocols can differ. Some T/C values carry the count of animals alive at the toxicity check (mostly the fifth day); without a count, all were alive then.

System: CD2F1 mice, L1210 leukemia ip, survival T/C
Experiment: NCI In Vivo Anticancer Drug Screen. Data for tumor model L1210 Leukemia (intraperitoneal) in CD2F1 (CDF1) mice
Conditions: higher T/C = longer survival
Outline: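 Read-out first: treated-group measurement over vehicle-control measurement, expressed as a ratio. Animals bore a transplanted tumor line and were dosed with compound or vehicle.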

[1] = T/C endpoint: mean survival time, dose: 400.0 mg/kg/injection, schedule: Q01DX009 (ip), vehicle: saline with Tween-80
[2] = T/C endpoint: mean survival time, dose: 200.0 mg/kg/injection, schedule: Q01DX001 (ip), vehicle: saline with Tween-80
[3] = T/C endpoint: mean survival time, dose: 400.0 mg/kg/injection, schedule: Q01DX001 (ip), vehicle: saline with Tween-80
[4] = T/C endpoint: mean survival time, dose: 400.0 mg/kg/injection, schedule: Q01DX001 (ip), vehicle: saline
[5] = T/C endpoint: mean survival time, dose: 400.0 mg/kg/injection, schedule: Q04DX003 (ip), vehicle: saline with Tween-80

O=c1[nH]c(=O)n(C2CC(O)C(CO)O2)cc1F (stereo not given)
T/C (T/C endpoint: mean survival time, dose: 25.0 mg/kg/injection, schedule: Q03HX024 (oral), vehicle: saline): 131 % of control
T/C (T/C endpoint: mean survival time, dose: 31.3 mg/kg/injection, schedule: Q01DX009 (ip), vehicle: saline): 140 % of control
T/C (T/C endpoint: mean survival time, dose: 31.3 mg/kg/injection, schedule: Q01DX009 (oral), vehicle: saline): 125 % of control
T/C (T/C endpoint: mean survival time, dose: 31.3 mg/kg/injection, schedule: Q01DX009 (sc), vehicle: saline): 135 % of control
T/C (T/C endpoint: mean survival time, dose: 37.5 mg/kg/injection, schedule: Q01DX007 (ip), vehicle: water): 126 % of control [5 of 6 alive]
T/C (T/C endpoint: mean survival time, dose: 37.5 mg/kg/injection, schedule: Q01DX009 (ip), vehicle: water): 128 % of control
T/C (T/C endpoint: mean survival time, dose: 40.0 mg/kg/injection, schedule: Q01DX009 (ip), vehicle: saline): 132 and 148 % of control
T/C (T/C endpoint: mean survival time, dose: 62.5 mg/kg/injection, schedule: Q01DX005 (ip), vehicle: saline): 136 % of control
T/C (T/C endpoint: mean survival time, dose: 62.5 mg/kg/injection, schedule: Q01DX009 (ip), vehicle: saline): 145 % of control
T/C (T/C endpoint: mean survival time, dose: 62.5 mg/kg/injection, schedule: Q01DX009 (oral), vehicle: saline): 143 % of control
T/C (T/C endpoint: mean survival time, dose: 62.5 mg/kg/injection, schedule: Q01DX009 (sc), vehicle: saline): 139 % of control
T/C (T/C endpoint: mean survival time, dose: 80.0 mg/kg/injection, schedule: Q01DX009 (ip), vehicle: saline): 148 % of control
T/C (T/C endpoint: mean survival time, dose: 100.0 mg/kg/injection, schedule: Q01DX009 (oral), vehicle: saline): 126 % of control
T/C (T/C endpoint: mean survival time, dose: 100.0 mg/kg/injection, schedule: Q03HX008 (oral), vehicle: saline): 134 % of control
T/C (T/C endpoint: mean survival time, dose: 100.0 mg/kg/injection, schedule: Q03HX016 (ip), vehicle: saline): 142 % of control
T/C (T/C endpoint: mean survival time, dose: 125.0 mg/kg/injection, schedule: Q01DX005 (ip), vehicle: saline): 146 % of control
T/C (T/C endpoint: mean survival time, dose: 125.0 mg/kg/injection, schedule: Q01DX009 (ip), vehicle: saline): 137 % of control
T/C (T/C endpoint: mean survival time, dose: 125.0 mg/kg/injection, schedule: Q01DX009 (sc), vehicle: saline): 141 % of control
T/C (T/C endpoint: mean survival time, dose: 150.0 mg/kg/injection, schedule: Q03DX003 (ip), vehicle: water): 142 % of control
T/C (T/C endpoint: mean survival time, dose: 150.0 mg/kg/injection, schedule: Q04DX003 (ip), vehicle: water): 134 % of control
T/C (T/C endpoint: mean survival time, dose: 160.0 mg/kg/injection, schedule: Q01DX009 (ip), vehicle: saline): 126 % of control
T/C (T/C endpoint: mean survival time, dose: 200.0 mg/kg/injection, schedule: Q04DX003 (oral), vehicle: saline): 131 % of control
T/C (T/C endpoint: mean survival time, dose: 250.0 mg/kg/injection, schedule: Q01DX005 (ip), vehicle: saline): 131 % of control
T/C (T/C endpoint: mean survival time, dose: 250.0 mg/kg/injection, schedule: Q03HX008 (ip), vehicle: saline): 136 % of control
T/C (T/C endpoint: mean survival time, dose: 250.0 mg/kg/injection, schedule: Q03HX016 (ip), vehicle: saline): 125 % of control
T/C (T/C endpoint: mean survival time, dose: 320.0 mg/kg/injection, schedule: Q01DX009 (ip), vehicle: saline): 132 % of control
survivor count (T/C endpoint: mean survival time, dose: 400.0 mg/kg/injection, schedule: Q01DX005 (ip), vehicle: water): 6 of 6
T/C (T/C endpoint: mean survival time, dose: 500.0 mg/kg/injection, schedule: Q01DX001 (ip), vehicle: saline): 135 % of control
T/C (T/C endpoint: mean survival time, dose: 500.0 mg/kg/injection, schedule: Q01DX001 (sc), vehicle: saline): 140 % of control
T/C (T/C endpoint: mean survival time, dose: 500.0 mg/kg/injection, schedule: Q03HX008 (ip), vehicle: saline): 142 % of control
T/C (T/C endpoint: mean survival time, dose: 500.0 mg/kg/injection, schedule: Q04DX003 (ip), vehicle: saline): 128 % of control
T/C (T/C endpoint: mean survival time, dose: 800.0 mg/kg/injection, schedule: Q01DX001 (oral), vehicle: saline): 132 % of control
T/C (T/C endpoint: mean survival time, dose: 1000.0 mg/kg/injection, schedule: Q01DX001 (ip), vehicle: saline): 131 % of control
T/C (T/C endpoint: mean survival time, dose: 1000.0 mg/kg/injection, schedule: Q03HX016 (ip), vehicle: saline): 143 % of control
T/C (T/C endpoint: mean survival time, dose: 1000.0 mg/kg/injection, schedule: Q08DX002 (ip), vehicle: saline): 126 % of control
T/C (T/C endpoint: median survival time, dose: 240.0 mg/kg/injection, schedule: Q04DX002 (ip), vehicle: saline): 141 % of control

C1=CC2OC1c1cc3ccccc3cc12
survivor count (T/C endpoint: mean survival time, dose: 400.0 mg/kg/injection, schedule: Q04DX003 (ip), vehicle: other): 2 of 6

CC(=O)c1ccc(N=NNc2ccc(C(C)=O)cc2)cc1
survivor count [1]: 3 of 6

CC1(C[N+](C)(C)C)COC(C)(C)O1 (stereo not given)
survivor count [2]: 0 of 6
survivor count [3]: 0 of 6

COc1ccc2c(c1)-c1c(ccc(OC)c1O)CC(c1ccccc1)[N+](C)(C)CC2 (stereo not given)
survivor count (T/C endpoint: mean survival time, dose: 100.0 mg/kg/injection, schedule: Q01DX001 (ip), vehicle: saline): 3 of 6
survivor count (T/C endpoint: mean survival time, dose: 200.0 mg/kg/injection, schedule: Q01DX001 (ip), vehicle: saline): 3 of 6
survivor count [4]: 0 of 6

C[n+]1cccc(CCc2ccc[n+](C)c2)c1
survivor count (T/C endpoint: mean survival time, dose: 200.0 mg/kg/injection, schedule: Q01DX009 (ip), vehicle: saline): 0 of 3

Nc1nc2nc3c(nc2c(=O)[nH]1)CN(c1ccc(C(=O)O)cc1)C3=O
survivor count [5]: 2 of 6

Nc1nc(Cl)nc(Cl)n1
survivor count (T/C endpoint: mean survival time, dose: 100.0 mg/kg/injection, schedule: Q01DX001 (ip), vehicle: saline with Tween-80): 5 of 6
survivor count [2]: 0 of 6
survivor count [3]: 0 of 6

CCOC(=O)c1c(NC(C)=O)sc2c1CCCC2
survivor count [5]: 6 of 6

O=C1N(Cl)C2C(N1Cl)N(Cl)C(=O)N2Cl (stereo not given)
survivor count (T/C endpoint: mean survival time, dose: 100.0 mg/kg/injection, schedule: Q04DX003 (ip), vehicle: saline with Tween-80): 1 of 6
survivor count (T/C endpoint: mean survival time, dose: 200.0 mg/kg/injection, schedule: Q04DX003 (ip), vehicle: saline with Tween-80): 0 of 6
survivor count [5]: 0 of 6

Cn1ncc2c(N)nc(-c3ccccn3)nc21
survivor count (T/C endpoint: mean survival time, dose: 200.0 mg/kg/injection, schedule: Q01DX005 (ip), vehicle: water): 2 of 6

Cc1ccccc1CC(C)c1ccccc1 (stereo not given)
survivor count [5]: 4 of 6

CCC[CH2][Sn]1([CH2]CCC)[O]C(=O)C2CC=CCC2C(=O)[O]1 (stereo not given)
survivor count [4]: 1 of 4

CC(=O)Nc1ccc(N=NN(C)Cc2ccccc2)cc1
survivor count (T/C endpoint: mean survival time, dose: 100.0 mg/kg/injection, schedule: Q01DX001 (ip), vehicle: Klucel (hydroxypropylcellulose) (HPC)): 0 of 3
survivor count (T/C endpoint: mean survival time, dose: 200.0 mg/kg/injection, schedule: Q01DX001 (ip), vehicle: Klucel (hydroxypropylcellulose) (HPC)): 0 of 3
survivor count (T/C endpoint: mean survival time, dose: 400.0 mg/kg/injection, schedule: Q01DX001 (ip), vehicle: Klucel (hydroxypropylcellulose) (HPC)): 0 of 3

O=C(NO)c1cccc(O)c1O
T/C (T/C endpoint: median survival time, dose: 89.78 mg/kg/injection, schedule: Q01DX009 (ip), vehicle: distilled water + Tween-80): 125 % of control
T/C (T/C endpoint: median survival time, dose: 134.0 mg/kg/injection, schedule: Q01DX009 (ip), vehicle: distilled water + Tween-80): 127 and 140 % of control
T/C (T/C endpoint: median survival time, dose: 200.0 mg/kg/injection, schedule: Q01DX009 (ip), vehicle: distilled water + Tween-80): 144 % of control
survivor count (T/C endpoint: median survival time, dose: 300.0 mg/kg/injection, schedule: Q01DX009 (ip), vehicle: distilled water + Tween-80): 3 of 6

CNC(=S)C#N
survivor count (T/C endpoint: median survival time, dose: 100.0 mg/kg/injection, schedule: Q01DX005 (ip), vehicle: saline + Tween-80 + alcohol): 0 of 6 and 4 of 6
survivor count (T/C endpoint: median survival time, dose: 200.0 mg/kg/injection, schedule: Q01DX005 (ip), vehicle: saline + Tween-80 + alcohol): 6 of 6
survivor count (T/C endpoint: median survival time, dose: 400.0 mg/kg/injection, schedule: Q01DX005 (ip), vehicle: saline + Tween-80 + alcohol): 0 of 6

CN=C(N)N/N=C(\C)c1ccc2c(c1)Cc1ccccc1-2
survivor count [1]: 2 of 6
survivor count (T/C endpoint: median survival time, dose: 400.0 mg/kg/injection, schedule: Q01DX009 (ip), vehicle: saline with Tween-80): 5 of 10

O=NN(CCCl)C(=S)NC1CCCCC1
T/C (T/C endpoint: mean survival time, dose: 6.25 mg/kg/injection, schedule: Q01DX001 (ip), vehicle: other): 133 % of control
T/C (T/C endpoint: mean survival time, dose: 12.5 mg/kg/injection, schedule: Q01DX001 (ip), vehicle: other): 125 % of control
survivor count (T/C endpoint: mean survival time, dose: 100.0 mg/kg/injection, schedule: Q01DX001 (ip), vehicle: other): 6 of 6 (2×)
